At least one structure is not confirmed: it was looked up by name or label, or the drawing left a doubt.
Tests used:
[1] = test system: SH-SY5Y cells overexpressing p38; assay: p38-positive cytoplasmic inclusions by immunocytochemistry in SH-SY5Y cells; type: cell-based; details: SH-SY5Y / SH-SY5Y-VI cells transfected with p38; proteasome inhibited, 1 μM overnight
[2] = test system: COS7 cells overexpressing p38; assay: p38 perinuclear inclusions (aggresomes) by immunocytochemistry in COS7 cells; type: cell-based; details: COS7 cells transfected with p38; proteasome inhibited, 1 μM overnight
Description: The cells (COS7, 2.5′ 104 and SH-SY5Y cells, 8′ 104) were transfected with the plasmids indicated (pcDNA3-myc-p38, 0.5 ·g; or pcDNA3-myc-p38 and pcDNA3-HA-Parkin, 0.25 ·g of each), and treated or not treated with: epoxomicin (Affiniti, 1 μM), nocodazole (Sigma, 15 μg/ml), cytochalasin D (Sigma, 200 nM) overnight. Forty-eight hours after transfection, the cells were fixed and subjected to standard immunocytochemistry procedures. The polyclonal primary antibodies used were: anti-p38 (M. Mirande, 1:20 000), anti-Parkin (Asp5, 1:400), anti-proteasome 20S (Affiniti, 1:2500), anti-Hsp70 (Stressgen, 1:2500), anti-ubiquitin (Dako, 1:100) and anti-actin (Sigma, 1:100). The monoclonal primary antibodies were: anti ·a-tubulin (clone DM 1A, Sigma, 1:1000), antivimentin (DAKO, clone V9, 1:100) and anti-myc (clone 9E10, Santa Cruz, 1:400). The secondary antibodies were: anti-mouse IgGs conjugated to the fluorochrome Alexa Fluor 488 (Interchim, 1:200) and anti-rabbit IgGs conjugated to the fluorochrome CY3 (Jackson ImmunoResearch, 1:500). The cells were analysed by confocal microscopy.
We analysed the nature and the composition of the p38 protein perinuclear inclusions formed when p38 is overexpressed in cells of the COS7 line. In particular, we wondered whether these inclusions could be of the aggresome type (Kopito et al., 2000). […]

## CC[C@H](C)[C@H](NC(=O)[C@H]([C@@H](C)CC)N(C)C(C)=O)C(=O)N[C@H](C(=O)N[C@@H](CC(C)C)C(=O)[C@@]1(C)CO1)[C@@H](C)O [epoxomicin]
[1]
  frequency and size of the p38-positive inclusions: significantly increased
[2]
  frequency and size of the p38-positive inclusions: significantly increased
